This is one part of the list.
Assay: HoxA9-arrested leukemia cell differentiation promoters – flow cytometry, MLPCN library, primary screen (AID 624256);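 note: cells exposed to compound for four days before flow analysis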
Conditions: ER-HoxA9 myeloid progenitors, lysozyme-GFP differentiation, measured here: differentiation confirmed by MAC1 staining, at 10 µM, stronger effect = higher value
`c1ccc(CN2CCC(Nc3ccccc3)CC2)cc1` showed a GFP+ MAC1+ double positive of 0.4%. In the case of `N#Cc1ccc(C(=O)NCC2(N3CCCCC3)CCCCC2)cc1`, the GFP+ MAC1+ double positive is reported as 0.5%. Compound `CC(C)(C)OC(=O)N1CCC(N(C(=O)c2ccccc2)c2ccc(Cl)cc2)CC1` has a GFP+ MAC1+ double positive of 0.2%. Compound `O=c1[nH]c2ccccc2n1C1CCN(C(c2cccs2)c2nnnn2C2CCCC2)CC1` (centres undefined) has a GFP+ MAC1+ double positive of 1%. Work on `O=C(OC1CN2CCC1CC2)C1c2ccccc2C=Cc2ccccc21` (centres undefined) yielded a GFP+ MAC1+ double positive of 0.2%. `CCCCn1nnnc1C(c1cccc(OC)c1OC)N1CCC(n2c(=O)[nH]c3ccccc32)CC1` (centres undefined) gave a GFP+ MAC1+ double positive of 0.8%. Work on `COc1cccc(C(c2nnnn2C(C)(C)C)N2CCC(n3c(=O)[nH]c4ccccc43)CC2)c1OC` (centres undefined) yielded a GFP+ MAC1+ double positive of 0.6%. With `N/C(=N\O)c1c(N)no[n+]1[O-]` the GFP+ MAC1+ double positive was 0.6%. In the case of `O=c1[nH]c2ccccc2n1C1CCN(C(c2cccs2)c2nnnn2C2CCCCC2)CC1` (centres undefined), the GFP+ MAC1+ double positive is reported as 1.2%. `O=c1[nH]c2ccccc2n1C1CCN(C(c2ccnc3ccccc23)c2nnnn2C2CCCC2)CC1` (centres undefined) showed a GFP+ MAC1+ double positive of 1%. With `COc1ccc(C(=O)NCC2(N3CCOCC3)CCCCC2)cc1OC` the GFP+ MAC1+ double positive was 0.9%. Work on `COc1cc(C(=O)NCC2(N3CCOCC3)CCCCC2)cc(OC)c1C` yielded a GFP+ MAC1+ double positive of 0.3%. `CCCCn1nnnc1C(c1ccccc1)N1CCC(n2c(=O)[nH]c3ccccc32)CC1` (centres undefined) gave a GFP+ MAC1+ double positive of 1%. For `O=C(NCC1(N2CCOCC2)CCCCC1)c1cc(Br)ccc1Cl`, the GFP+ MAC1+ double positive was 1%. With `COc1ccc(C(c2nnnn2C2CCCC2)N2CCC(n3c(=O)[nH]c4ccccc43)CC2)cc1` (centres undefined) the GFP+ MAC1+ double positive was 0.3%. `CCCOc1ccc(C(=O)NCC2(N(C)C)CCCCC2)cc1OC` showed a GFP+ MAC1+ double positive of 0.6%. `Cc1ccc(C(=O)NCC2(N(C)C)CCCCC2)o1` showed a GFP+ MAC1+ double positive of 0.6%. With `O=C(NCC1(N2CCCCC2)CCCCC1)c1cncc(Br)c1` the GFP+ MAC1+ double positive was 1.4%. Compound `CN1CCC(Nc2cccc(F)c2)CC1` has a GFP+ MAC1+ double positive of 4.9%. `O=C(NCC1(N2CCOCC2)CCCCC1)c1cc(F)c(F)cc1Cl` gave a GFP+ MAC1+ double positive of 0.5%. `CCC(c1nnnn1C(C)(C)C)N1CCC(n2c(=O)[nH]c3ccccc32)CC1` (centres undefined) gave a GFP+ MAC1+ double positive of 1%. With `COc1cc(OC)c(C(=O)NCC2(N(C)C)CCCCC2)cc1OC` the GFP+ MAC1+ double positive was 0.4%. `CCCCn1nnnc1C(c1ccnc2ccccc12)N1CCC(n2c(=O)[nH]c3ccccc32)CC1` (centres undefined) showed a GFP+ MAC1+ double positive of 1.2%. For `CC(C)c1ccc(NC2CCN(C(=O)OC(C)(C)C)CC2)cc1`, the GFP+ MAC1+ double positive was 0.6%. In the case of `CCCCn1nnnc1C(c1ccccc1OC(F)(F)F)N1CCC(n2c(=O)[nH]c3ccccc32)CC1` (centres undefined), the GFP+ MAC1+ double positive is reported as 1.2%. Work on `CN(C)c1cccc(C(=O)NCC2(N3CCCCC3)CCCCC2)c1` yielded a GFP+ MAC1+ double positive of 0.5%. Compound `COc1ccc(CN(CCCl)CCCl)cc1Cl` has a GFP+ MAC1+ double positive of 0.7%. With `COc1cc(C(=O)NCC2(N3CCCCC3)CCCCC2)ccc1OC(F)F` the GFP+ MAC1+ double positive was 7.3%. `O=C(NCC1(N2CCOCC2)CCCCC1)c1cc(=O)[nH]c2ccccc12` gave a GFP+ MAC1+ double positive of 1%. With `CCCCn1nnnc1C(c1cccc2ccccc12)N1CCC(n2c(=O)[nH]c3ccccc32)CC1` (centres undefined) the GFP+ MAC1+ double positive was 1.2%. `CN1CCN(CCOC(=O)C(O)(c2ccccc2)c2ccccc2)CC1` gave a GFP+ MAC1+ double positive of 1.2%. For `COc1ccc(NC2CCN(C(=O)OC(C)(C)C)CC2)cc1`, the GFP+ MAC1+ double positive was 0.3%. In the case of `CC(C)c1ccc(C(=O)NCC2(N3CCOCC3)CCCCC2)cc1`, the GFP+ MAC1+ double positive is reported as 1.7%. For `O=C(NCC1(N2CCCCC2)CCCCC1)c1cccc(C(F)(F)F)c1`, the GFP+ MAC1+ double positive was 2%. For `N#CC1(Nc2ccccc2)CCN(CCc2ccccc2)CC1`, the GFP+ MAC1+ double positive was 0.2%. `CCN1CCC(Nc2ccc(Cl)cc2)CC1` showed a GFP+ MAC1+ double positive of 0.1%. In the case of `CSc1ccc(C(=O)NCC2(N3CCOCC3)CCCCC2)cc1`, the GFP+ MAC1+ double positive is reported as 0.9%. Compound `O=C(NCC1(N2CCCCC2)CCCCC1)c1cccc([N+](=O)[O-])c1` has a GFP+ MAC1+ double positive of 0.4%. `O=C(NCC1(N2CCCCC2)CCCCC1)c1ccc(OC(F)F)cc1` gave a GFP+ MAC1+ double positive of 1.6%. `CC(C)(C)n1nnnc1C(c1ccccc1OC(F)(F)F)N1CCC(n2c(=O)[nH]c3ccccc32)CC1` (centres undefined) gave a GFP+ MAC1+ double positive of 1.6%. For `COc1cc(C(=O)NCC2(N(C)C)CCCCC2)ccc1OC(F)F`, the GFP+ MAC1+ double positive was 0.2%. With `CCOC(=O)N1CCC(Nc2cccc(C)c2)CC1` the GFP+ MAC1+ double positive was 0.9%. Work on `O=c1[nH]c2ccccc2n1C1CCN(C(c2cccc3ccccc23)c2nnnn2C2CCCC2)CC1` (centres undefined) yielded a GFP+ MAC1+ double positive of 0.6%. Compound `O=c1[nH]c2ccccc2n1C1CCN(C(c2ccccc2)c2nnnn2C2CCCCC2)CC1` (centres undefined) has a GFP+ MAC1+ double positive of 0.5%. Work on `COc1ccc(NC2CCN(CCc3ccccc3)CC2)c(OC)c1` yielded a GFP+ MAC1+ double positive of 7.8%. Compound `CCOC(=O)N1CCC(Nc2ccc(F)cc2)CC1` has a GFP+ MAC1+ double positive of 0.5%. For `O=C(NCC1(N2CCCCC2)CCCCC1)c1ccc(F)cc1`, the GFP+ MAC1+ double positive was 0.5%. `O=P1(N(CCCl)CCCl)SCCCS1` gave a GFP+ MAC1+ double positive of 1.9%. With `CCCCn1nnnc1C(c1cc2ccccc2o1)N1CCC(n2c(=O)[nH]c3ccccc32)CC1` (centres undefined) the GFP+ MAC1+ double positive was 1.1%. `CCCCOc1ccc(C(=O)NCC2(N3CCOCC3)CCCCC2)cc1` gave a GFP+ MAC1+ double positive of 0.6%. In the case of `O=C1CCN(Cc2ccccc2)CC1`, the GFP+ MAC1+ double positive is reported as 1.7%. `CC(C)(C)n1nnnc1C(c1ccccc1)N1CCC(n2c(=O)[nH]c3ccccc32)CC1` (centres undefined) gave a GFP+ MAC1+ double positive of 0.6%. Work on `CCOc1ccc(C)cc1CN(CCCl)CCCl` yielded a GFP+ MAC1+ double positive of 0.8%. With `COc1ccc(Cl)cc1C(=O)NCC1(N2CCOCC2)CCCCC1` the GFP+ MAC1+ double positive was 0.2%. Compound `O=C(OC1CN2CCC1CC2)C1c2ccccc2Oc2ccccc21` (centres undefined) has a GFP+ MAC1+ double positive of 4%. In the case of `O=c1[nH]c2ccccc2n1C1CCN(C(c2cc3ccccc3o2)c2nnnn2C2CCCCC2)CC1` (centres undefined), the GFP+ MAC1+ double positive is reported as 1.1%. `N#CC1(Nc2ccccc2)CCN(Cc2ccccc2)CC1` showed a GFP+ MAC1+ double positive of 0.4%. Compound `O=C(NCC1(N2CCCCC2)CCCCC1)c1ccc(Cl)s1` has a GFP+ MAC1+ double positive of 1%. `CCCCn1nnnc1C(c1ccc(OC)cc1)N1CCC(n2c(=O)[nH]c3ccccc32)CC1` (centres undefined) gave a GFP+ MAC1+ double positive of 2.2%. With `CCOC(=O)N1CCC(Nc2ccc(OC)cc2)CC1` the GFP+ MAC1+ double positive was 0.1%. With `Cc1cc(C)cc(N(C(=O)c2ccccc2)C2CCN(C(=O)OC(C)(C)C)CC2)c1` the GFP+ MAC1+ double positive was 0.8%. With `O=c1[nH]c2ccccc2n1C1CCN(C(c2ccccc2OC(F)(F)F)c2nnnn2C2CCCCC2)CC1` (centres undefined) the GFP+ MAC1+ double positive was 1%. `O=C(NCC1(N2CCCCC2)CCCCC1)c1ccc(Cl)nc1` showed a GFP+ MAC1+ double positive of 0.7%. `O=C(NCC1(N2CCOCC2)CCCCC1)c1cc2ccccc2o1` gave a GFP+ MAC1+ double positive of 0.7%. `Cc1cccc(NC2(C#N)CCN(Cc3ccccc3)CC2)c1` showed a GFP+ MAC1+ double positive of 1.2%. Work on `CSc1ccccc1C(=O)NCC1(N2CCCCC2)CCCCC1` yielded a GFP+ MAC1+ double positive of 0.3%. `CCC(c1nnnn1C1CCCC1)N1CCC(n2c(=O)[nH]c3ccccc32)CC1` (centres undefined) gave a GFP+ MAC1+ double positive of 0.7%. `COc1ccc(C(=O)NCC2(N3CCCCC3)CCCCC2)c(OC)c1OC` showed a GFP+ MAC1+ double positive of 0.3%. For `CC(C)(C)OC(=O)N1CCC(N(C(=O)c2ccccc2)c2ccc(F)cc2)CC1`, the GFP+ MAC1+ double positive was 0.7%. `COc1ccc(C(=O)NCC2(N3CCCCC3)CCCCC2)cc1` showed a GFP+ MAC1+ double positive of 1.7%. In the case of `CCCCn1nnnc1C(c1cccs1)N1CCC(n2c(=O)[nH]c3ccccc32)CC1` (centres undefined), the GFP+ MAC1+ double positive is reported as 1.8%. For `CCCCn1nnnc1C(CC)N1CCC(n2c(=O)[nH]c3ccccc32)CC1` (centres undefined), the GFP+ MAC1+ double positive was 0.4%. `O=C(NCC1(N2CCCCC2)CCCCC1)c1cccs1` gave a GFP+ MAC1+ double positive of 0.2%. `O=C(NCC1(N2CCCCC2)CCCCC1)c1ccc(=O)[nH]c1` gave a GFP+ MAC1+ double positive of 1%.

Source: PubChem BioAssay AID624256 (NMMLSC, 2012)
